The results in this text go back to PubChem BioAssay AID445 (National Center for Advancing Translational Sciences (NCATS), 2006).

A short description of this assay: IkB Signaling. The conditions noted are these: ABC-DLBCL IkBa-CBG/CBR dual luciferase ratio (green luciferase fused to IkBa over red control in OCI-Ly3 lymphoma cells), 4 h. In short, it runs like this:
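Luminescence ratio of IκBα-fused green versus native red beetle luciferase in OCI-Ly3 cells, 4 h post-doxycycline with compound; red signal alone, scaled from basal (0%) to zero light (-100%), flagged nonspecific or cytotoxic effects.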

[1] abbreviates: measured here: control luc red channel unless noted.

Some of the results follow. Shown are side measurements of this screen, not its main read-out; they come without a call. Most of these compounds were active or inconclusive in the main read-out, so they are no random draw. Words in brackets tell the shape of the fitted curve; partial curves, single points and poor fits give uncertain potencies.

As to `COc1cccc(-n2c(=O)c3sc4ccccc4c3n(CC(=O)NC3CCCCC3)c2=O)c1`, under setting [1], the AC50 – broadly, the midpoint of the concentration-response curve, whichever way the signal moves – is 10 µM [rising, partial curve, poor fit]. Consider `O=C(C1CCCCN1S(=O)(=O)c1ccc(F)cc1)N1CCN(c2ccccc2F)CC1` (configuration not stated), for which the AC50 under setting [1] is 12.6 µM [falling, partial curve]. Same read-out and setting: under `Cn1c(=O)oc2cc(S(=O)(=O)NCCC(=O)Nc3ccc(F)cc3F)ccc21` stands 25.1 µM [falling, single point]; under `COc1ccccc1-n1cnnc1SC1CCOC1=O` (configuration not stated), 0.0501 µM [falling, full curve]; under `CCCCn1c(=N)n(CC(O)COc2cccc(C)c2)c2ccccc21` (configuration not stated), 12.6 µM [falling, partial curve]. On to `CCCCC(=O)NC1CC(=O)N(c2ccc3c(c2)OCCO3)C1` (configuration not stated), for which, under setting [1], the concentration at half-maximal activity (AC50) was 2.51 µM [rising, partial curve].

`CC1(C)Cc2c(sc3c2c(=N)n(Cc2ccco2)c(=O)n3CC(=O)Nc2ccccc2)CO1`: the AC50 under setting [1] is 12.6 µM [falling, partial curve]. Turning to `CCN(CCCNC(=O)C1CCC(=O)N1Cc1ccc(C)cc1)c1cccc(C)c1` (configuration not stated), the AC50 under setting [1] is 20 µM [falling, partial curve]. With `CCOc1ccc(CCNC(=O)c2cn(C)c3ccc(S(=O)(=O)N4CCCCC4)cc3c2=O)cc1OCC`, the half-maximal activity concentration (AC50) under setting [1] is 3.16 µM [rising, partial curve].

As for `CCCc1cc(-c2[nH]ncc2-c2ccc(C(=O)OCC)o2)c(O)cc1O`, the half-maximal activity concentration (AC50) under setting [1] is 20 µM [falling, partial curve]. The same measure, in the same setting: then `COc1ccccc1C(=O)Nc1cccc(C(=O)OCc2cc(=O)n3cc(C)sc3n2)c1`, with 5.01 µM [falling, partial curve]. As for `O=C(CCn1cnc2ccccc2c1=O)NCc1ccccc1Cl`, under setting [1], the AC50 was 3.98 µM [falling, partial curve, poor fit].

With `O=C(OCc1cc2ccccc2[nH]c1=O)c1ccccc1`, the AC50 under setting [1] was 10 µM [falling, partial curve]. For `COc1ccc(-c2nc(C)c(CCNS(=O)(=O)c3cc(Cl)ccc3Cl)s2)cc1`, under setting [1], the AC50 was 39.8 µM [falling, single point]. On to `COC(=O)CN1C(=O)CSc2ccc(S(=O)(=O)Nc3cc(C)ccc3C)cc21`, for which the AC50 under setting [1] was 15.8 µM [falling, partial curve].

With `Cc1nc2cccnc2n1-c1cccc(C(=O)N2CCN(c3cccc(Cl)c3)CC2)c1`, the AC50 under setting [1] was 15.8 µM [falling, partial curve]. Same read-out and setting: then `N#Cc1nc(-c2ccc(OCc3ccccc3)cc2)oc1NCCCN1CCOCC1`, with 15.8 µM [falling, partial curve]. Take `CCCn1c(=O)n(-c2ccccc2Cl)c(=O)c2sc3ccccc3c21`: the AC50 under setting [1] is 2.51 µM [rising, partial curve]. In the case of `Cc1cc(C)c(NC(=O)Cn2nc(-c3ccncc3)ccc2=O)c(C)c1`, the AC50 under setting [1] is 6.31 µM [falling, partial curve, poor fit]. For the compound `O=C(CN1C(=O)C(c2ccc(F)cc2)=NC12CCCCCC2)Nc1ccccc1Cl`, the AC50 under setting [1] is 15.8 µM [falling, partial curve]. Same read-out and setting: under `CC1=Nc2cc(C(=O)NCc3ccccc3Cl)ccc2Sc2c(C)ccc(C)c21` stands 3.98 µM [rising, partial curve]. The same measure, in the same setting: under `Cc1cc(Nc2nc3ccccc3[nH]c2=O)n(-c2ccccc2)n1` stands 25.1 µM [rising, partial curve] [measured here: IkB-luc green channel]; under `COc1ccc(-c2ccc3c(N)c(C(=O)Nc4ccc(C(F)(F)F)cc4)sc3n2)cc1OC`, 3.16 µM [falling, full curve]. Same read-out and setting: under `CCCCn1c(SCC(=O)c2ccccc2)nc2c(sc3ccccc32)c1=O` stands 12.6 µM [rising, partial curve]; under `CCN(C(=O)Cn1nnc2sc3c(c2c1=O)CCC(C(C)(C)C)C3)c1cccc(C)c1` (configuration not stated), 25.1 µM [falling, partial curve].

Consider `COC(=O)c1cc2oc3ccccc3c2n1Cc1nc(-c2ccc(Cl)cc2)oc1C`, for which the AC50 under setting [1] was 15.8 µM [rising, partial curve]. As to `O=C(c1ccc(Cn2c(=O)[nH]c3ccccc3c2=O)cc1)N1CCN(c2ccc(Cl)cc2)CC1`, the AC50 under setting [1] is 12.6 µM [falling, partial curve]. Same read-out and setting: then `O=C(Nc1nc2c(s1)CCCC2)C1COc2ccccc2O1` (configuration not stated), with 10 µM [falling, partial curve]; and `CC(=O)c1ccc(N2CCN(C(=O)C3CCCN(S(=O)(=O)c4ccc(Br)s4)C3)CC2)cc1` (configuration not stated), with 25.1 µM [falling, partial curve]. On the same count and under the same terms, then `Cn1c(C(=O)N(Cc2ccccc2)Cc2ccccn2)cc2sccc21`, with 25.1 µM [falling, single point].

Consider `Cc1ccc(-n2nc3ccc(NC(=O)COc4ccccc4C)cc3n2)cc1`, for which, under setting [1], the AC50 was 2.51 µM [rising, full curve].

In the case of `Cc1ccc(C)c(N2CCN(C(=O)C3CCCN(S(=O)(=O)c4c(C)noc4C)C3)CC2)c1` (configuration not stated), the AC50 under setting [1] was 12.6 µM [falling, partial curve].

With `OCCN1CCN(C(c2cccs2)c2ccc3cccnc3c2O)CC1` (configuration not stated), the half-maximal activity concentration (AC50) runs as follows: (measured here: IkB-luc green channel) 6.31 µM [rising, single point]; (measured here: control luc red channel) 39.8 µM [falling, single point]. Regarding `CC1CCN(S(=O)(=O)c2ccc3c(c2)N(CC(=O)NC(C)c2ccccc2)C(=O)CS3)CC1` (configuration not stated), the AC50 under setting [1] is 20 µM [falling, partial curve]. Take `CC(C)c1nc(N2CCN(C(=O)c3ccco3)CC2)c2c3c(sc2n1)CCCC3`: the AC50 under setting [1] was 12.6 µM [falling, partial curve]. For the compound `CC(C)Cn1cc(NC(=O)N2CCN(c3cccc(Cl)c3)CC2)c2ccccc2c1=O`, the AC50 under setting [1] was 25.1 µM [falling, single point]. Consider `CCSc1nnc(NC(=O)c2cccs2)s1`, for which the half-maximal activity concentration (AC50) under setting [1] is 10 µM [falling, partial curve].

In the case of `COc1ccc(N2CCN(Cc3nc(N)nc(Nc4ccc(C)c(Cl)c4)n3)CC2)cc1`, the AC50 under setting [1] is 10 µM [falling, partial curve]. Same read-out and setting: then `CCc1ccc(NC(=O)N2CCOc3ccc(Cl)cc32)cc1`, with 31.6 µM [falling, single point]. Consider `COc1cc(Cl)c(S(=O)(=O)NCCc2c(C)[nH]c3c(C)cccc23)cc1Cl`, for which the AC50 under setting [1] is 39.8 µM [falling, single point].

As to `COC(=O)c1ccc(NC(=O)CC2C(=O)N(c3cccc(OC)c3)C(=O)N2Cc2cccs2)cc1` (configuration not stated), under setting [1], the AC50 was 20 µM [falling, partial curve].

For the compound `CCOc1ccc(-c2cc(CCCC(=O)Nc3cc(OC)ccc3OC)no2)cc1`, the AC50 under setting [1] is 0.316 µM [falling, full curve]. As for `C=CCSc1nnc2c(n1)[nH]c1c(C)cccc12`, the concentration at half-maximal activity (AC50) under setting [1] is 12.6 µM [falling, partial curve]. As for `Cc1ccc(-c2nc(NC(=O)CSc3cc(C)c4ccccc4n3)ns2)cc1`, under setting [1], the AC50 was 15.8 µM [falling, partial curve]. In the case of `CCCCN(CC)C(=O)CSc1nc2n[nH]c(C)c2c(=N)n1-c1cccc(Cl)c1`, under setting [1], the concentration at half-maximal activity (AC50) was 7.94 µM [falling, partial curve]. Same read-out and setting: under `Cc1ccc(NC(=O)Cc2ccc(-n3c(C)nc4cccnc43)cc2)c(Cl)c1` stands 5.01 µM [falling, partial curve]. The same measure, in the same setting: then `CCC(=O)N1CCc2cc(Br)cc(S(=O)(=O)CCC(=O)NCc3ccccc3OC)c21`, with 12.6 µM [falling, single point]; and `COc1ccc(OC)c(NS(=O)(=O)c2ccc3c(c2)C(C)(C)C(=O)N3C)c1`, with 15.8 µM [rising, partial curve].

For the compound `NC(=O)C1CCN(C(=O)c2ccc(NC(=O)c3nsc4ccccc34)cc2)CC1`, the AC50 under setting [1] is 0.501 µM [falling, full curve]. The same measure, in the same setting: then `NC[C@@H]1O[C@@H](O[C@H]2[C@@H](O)[C@H](O[C@@H]3[C@H](O)[C@H](N)C[C@H](N)[C@H]3O[C@@H]3O[C@@H](CO)[C@H](O)[C@H](O)[C@@H]3N)O[C@H]2CO)[C@H](N)[C@H](O)[C@@H]1O`, with 31.6 µM [rising, partial curve, poor fit] [measured here: IkB-luc green channel]; and `Cc1ccc(NC(=O)CCSc2nnnn2-c2ccc3c(c2)OCO3)cc1C`, with 20 µM [falling, partial curve]. On the same count and under the same terms, under `Clc1cccc(-c2ccc(CNCCSc3nnnn3-c3ccccc3)o2)c1` stands 25.1 µM [falling, single point]; under `O=C(c1ccccc1)N1CCN(CCc2ccncc2)CC1`, 0.126 µM [falling, full curve, poor fit]. Take `CC(=O)c1ccc(NC(=O)c2nc3ccccc3nc2N2CCCCC2)cc1`: under setting [1], the AC50 is 31.6 µM [falling, partial curve]. Take `COc1ccc(Cn2c(C(=O)O)c(CNCc3ccccc3F)c3ccc(OC)cc32)cc1`: the AC50 under setting [1] was 20 µM [falling, single point]. In the case of `COC(=O)c1ccc(C2c3c(-c4ccccc4O)n[nH]c3C(=O)N2Cc2cccnc2)cc1` (configuration not stated), the AC50 under setting [1] was 39.8 µM [falling, single point]. Still for that read-out and setting: then `CCN(CCCNC(=O)Cn1ncc2c3ccccc3n(C)c2c1=O)Cc1ccccc1`, with 25.1 µM [falling, partial curve]; and `O=C(Nc1cc(-c2nc3cc(Cl)ccc3o2)ccc1Cl)c1ccco1`, with 5.01 µM [falling, partial curve]; and `CCc1ccc(NC(=O)CSc2nc(=O)n(Cc3ccccn3)c3c2CCC3)cc1`, with 31.6 µM [falling, single point].

For `COc1cccc(C2C(C(=O)Nc3ccc(C)cc3C)=C(C)Nc3c(C(=O)Nc4ccccc4)cnn32)c1` (configuration not stated), under setting [1], the AC50 was 10 µM [falling, partial curve]. On to `O=C(O)c1cccc(C(=O)Nc2cccc(NC(=O)C3CCCO3)c2)c1` (configuration not stated), for which the AC50 under setting [1] is 7.94 µM [falling, partial curve].
